Test system: Primary Human Skin Fibroblasts
Assay: XTT cytotoxicity assay on primary human skin fibroblasts
Assay type: cell-based
Method: Cytotoxicity was assessed by a colorimetric assay system, initially described by Scudiero et al., using 3′-(phenylamino-carbonyl)-3,4-tetrazolium-bis (4-methoxy-6-nitro) benzene sulfonic acid hydrate (XTT), ProCheck™ cell viability assay (Evaluation of a soluble tetrazolium/formazan assay for cell growth and drug sensitivity in culture using human and other tumor cell lines described by Scudiero D A, Shoemaker R A H, Paul K D, Monks A, Tierney S, Nofziger T H, Currens M J, Seniff D, Boyd M R. Cancer Res. 1988 Septmeber 1;48(17):4827-33). Similar approaches for determining the cell viability are used by other investigators. Three cell types were used: mouse lung epithelial cells (L929), primary human skin fibroblast and primary human keratinocyte cells cultured in Dulbecco Modified Eagle's Medium and Keratinocyte defined medium with corresponding growth factors plus antibiotics. Cells were trypsinized and counted under the microscope and seeded at 1000-to-2000 cells per well of a flat-bottom 96-well plate. Cells were allowed to grow over-night at 37° C. Next day, tissue culture media was removed and cells were rinsed with fresh media 1× and then left in 50 μL of tissue culture media. […] Absorbance was read at 450 nm with reference wavelength at 750 nm using Molecular Device ThermoMax Plate reader, blanking the plate on the medium-only assay blank wells. […]

O=S(=O)(O)CCN(Cl)Cl [NNDCT, N,N-dichlorotaurine]
range of cell toxicity relative to range of antimicrobial activity (0.9% saline, pH 3.5, toxicity in the mM range): 1000 fold
therapeutic index (TI), IC50 over MBC (Table 2): about 5,000

From patent US7846971B2, “N-halogenated amino acids, N,N-dihalogenated amino acids and derivatives; compositions and methods of using them” (Novabay Pharmaceuticals, Inc., priority 2005, dated 2010)
